Results on 4 compounds are retold here after PubChem BioAssay AID306 (DTP/NCI, 2004).

In this assay the test system is BDF1 mice, L1210 Methyl-GAG-resistant leukemia, survival T/C. Briefly: NCI In Vivo Anticancer Drug Screen. Data for tumor model L1210 Leukemia resistant to Methyl-GAG; NSC 32946 (subcutaneous) in B6D2F1 (BDF1) mice. Conditions: T/C endpoint: mean survival time, schedule: Q01DX Z (ip), higher T/C = longer survival. As to the method:
The antitumor activity of compounds was measured in mice bearing transplantable tumors. Survival or tumor size were measured and the results are expressed as the measurement made in the treated group (T) divided by the measurement made in the vehicle treated control group (C). The tumor model used in this assay is L1210 Leukemia resistant to Methyl-GAG; NSC 32946 (subcutaneous) in B6D2F1 (BDF1) mice

The structures appear in SMILES notation. The list shows only some results of the screen, not a fair sample: its compounds were picked by chemical class. Not every dose and run of a compound is shown. T/C is the treated group as % of the vehicle group. Some doses have a count of surviving animals in place of a T/C: the source files T/C as zero there, which appears to mark a toxic dose or a test without result, not a measured value. Some doses without a T/C left all or most animals alive at the check, yet need not have been tolerated: the source hardly ever lists a survival T/C far under the control, and the zero likely stands for such cases as well. Survivors were counted at the toxicity check, usually on the fifth day, unless a day is given; later deaths do not show. Schedules are NCI's codes, read here as Q, the interval in days (D) or hours (H), X, the number of doses. Some schedule codes hold Z or #, which are not explained here. Where survival is the endpoint, this PubChem deposit counts one and a half times the control or more as active, and values a quarter to a half above the control carry no call in these data; other NCI protocols may use other cut-offs. Counts like (3×) count equal records among those shown. Some entries hold several experiments; their values stand side by side, smallest first. Some T/C values are followed by the survivors on the day toxicity was checked, most often the fifth; where neither a count nor a note follows, no animal had died by that day.

Take `OC(CNCCCl)C(O)C(O)C(O)CNCCCl` (stereo not given): the T/C reads like this: (dose: 12.5 mg/kg/injection, vehicle: saline) 100 % of control; (dose: 25.0 mg/kg/injection, vehicle: saline) 108 % of control; (dose: 50.0 mg/kg/injection, vehicle: saline) 102 % of control [5 of 6 alive]. Also, the survivor count (dose: 100.0 mg/kg/injection, vehicle: saline) is 6 of 6.
As to `CC[C@H](C)[C@@H]1NC(=O)/C(=C(\C)O)C1=O`, the T/C is 101 % of control (dose: 3.1 mg/kg/injection, vehicle: water); 103 % of control (2×) (dose: 6.25 mg/kg/injection, vehicle: water); 100 and 103 % of control (dose: 12.5 mg/kg/injection, vehicle: water); 105 and 106 % of control (dose: 25.0 mg/kg/injection, vehicle: water); 93 % of control [4 of 6 alive] (dose: 50.0 mg/kg/injection, vehicle: water).
Take `Cc1[nH]c(=O)[nH]c(=O)c1N(CCCl)CCCl`: the T/C runs as follows: (dose: 0.25 mg/kg/injection, vehicle: carboxymethylcellulose (CMC)) 100 % of control; (dose: 0.5 mg/kg/injection, vehicle: carboxymethylcellulose (CMC)) 107 % of control; (dose: 1.0 mg/kg/injection, vehicle: carboxymethylcellulose (CMC)) 108 % of control; (dose: 2.0 mg/kg/injection, vehicle: carboxymethylcellulose (CMC)) 118 % of control. For the same compound, the survivor count is, setting by setting: (dose: 4.0 mg/kg/injection, vehicle: carboxymethylcellulose (CMC)) 6 of 6; (dose: 8.0 mg/kg/injection, vehicle: carboxymethylcellulose (CMC)) 2 of 6; (dose: 16.0 mg/kg/injection, vehicle: carboxymethylcellulose (CMC)) 0 of 6.
Turning to `CN(N=O)C(=N)N[N+](=O)[O-]`, the T/C by setting is: (dose: 9.4 mg/kg/injection, vehicle: carboxymethylcellulose (CMC)) 93 % of control; (dose: 18.75 mg/kg/injection, vehicle: carboxymethylcellulose (CMC)) 91 % of control; (dose: 37.5 mg/kg/injection, vehicle: carboxymethylcellulose (CMC)) 95 % of control. Also, for the setting “dose: 75.0 mg/kg/injection, vehicle: carboxymethylcellulose (CMC)”, the survivor count was 0 of 6.
